Among the data in doi:10.1101/2025.08.13.670075 are binding values, retold here.

Chains of the proteins cited; added tags and fusions are not shown.
UniProt Q13200: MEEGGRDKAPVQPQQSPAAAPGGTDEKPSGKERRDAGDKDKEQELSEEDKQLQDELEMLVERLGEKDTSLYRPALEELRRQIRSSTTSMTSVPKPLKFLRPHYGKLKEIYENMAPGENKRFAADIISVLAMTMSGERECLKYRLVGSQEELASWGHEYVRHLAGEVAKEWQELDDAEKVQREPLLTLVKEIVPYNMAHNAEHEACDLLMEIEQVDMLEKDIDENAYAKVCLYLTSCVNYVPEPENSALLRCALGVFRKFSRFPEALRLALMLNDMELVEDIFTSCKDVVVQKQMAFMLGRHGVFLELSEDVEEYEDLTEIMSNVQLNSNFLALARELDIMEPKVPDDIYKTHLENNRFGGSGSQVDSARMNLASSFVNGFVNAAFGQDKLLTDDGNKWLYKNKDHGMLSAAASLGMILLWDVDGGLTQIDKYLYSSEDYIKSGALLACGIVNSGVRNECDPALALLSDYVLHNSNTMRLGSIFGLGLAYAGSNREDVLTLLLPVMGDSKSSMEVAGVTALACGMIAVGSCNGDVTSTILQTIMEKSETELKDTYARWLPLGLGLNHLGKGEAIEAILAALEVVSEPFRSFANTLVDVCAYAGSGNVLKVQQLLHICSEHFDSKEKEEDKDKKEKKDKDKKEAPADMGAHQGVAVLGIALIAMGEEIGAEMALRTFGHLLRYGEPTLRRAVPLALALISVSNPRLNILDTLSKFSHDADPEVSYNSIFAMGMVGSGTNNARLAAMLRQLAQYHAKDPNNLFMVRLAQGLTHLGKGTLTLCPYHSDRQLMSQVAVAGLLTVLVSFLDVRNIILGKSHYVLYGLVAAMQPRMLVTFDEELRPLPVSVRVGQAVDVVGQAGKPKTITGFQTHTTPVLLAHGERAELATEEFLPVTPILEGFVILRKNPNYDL

These are yes or no findings as the source states them, for the method shown. Some entries that bind do so weakly or less than the wild type.

The test has as its target free PSMD2 (in the erythrocyte proteasome preparation) (human (endogenous in erythrocytes)) (UniProt Q13200). Put plainly: native gel or EMSA. For orientation: In EMSA bound probe runs differently from free probe, usually more slowly.

B1: USP15 catalytic USP domain (domain or fragment, UniProt Q9Y4E8 289-933)
chain: CGLSNLGNTCFMNSAIQCLSNTPPLTEYFLNDKYQEELNFDNPLGMRGEIAKSYAELIKQMWSGKFSYVTPRAFKTQVGRFAPQFSGYQQQDCQELLAFLLDGLHEDLNRIRKKPYIQLKDADGRPDKVVAEEAWENHLKRNDSIIVDIFHGLFKSTLVCPECAKISVTFDPFCYLTLPLPMKKERTLEVYLVRMDPLTKPMQYKVVVPKIGNILDLCTALSALSGIPADKMIVTDIYNHRFHRIFAMDENLSSIMERDDIYVFEININRTEDTEHVIIPVCLREKFRHSSYTHHTGSSLFGQPFLMAVPRNNTEDKLYNLLLLRMCRYVKISTETEETEGSLHCCKDQNINGNGPNGIHEEGSPSEMETDEPDDESSQDQELPSENENSQSEDSVGGDNDSENGLCTEDTCKGQLTGHKKRLFTFQFNNLGNTDINYIKDDTRHIRFDDRQLRLDERSFLALDWDPDLKKRYFDENAAEDFEKHESVEYKPPKKPFVKLKDCIELFTTKEKLGAEDPWYCPNCKEHQQATKKLDLWSLPPVLVVHLKRFSYSRYMRDKLDTLVDFPINDLDMSEFLINPNAGPCRYNLIAVSNHYGGMGGGHYTAFAKNKDDGKWYYFDDSSVSTASEDQIVSKAAYVLFYQRQ
On to B1, for which the binding result is given as “binds”.

B2: recombinant full-length USP15 (enzyme, UniProt Q9Y4E8 1-981)
chain: MAEGGAADLDTQRSDIATLLKTSLRKGDTWYLVDSRWFKQWKKYVGFDSWDKYQMGDQNVYPGPIDNSGLLKDGDAQSLKEHLIDELDYILLPTEGWNKLVSWYTLMEGQEPIARKVVEQGMFVKHCKVEVYLTELKLCENGNMNNVVTRRFSKADTIDTIEKEIRKIFSIPDEKETRLWNKYMSNTFEPLNKPDSTIQDAGLYQGQVLVIEQKNEDGTWPRGPSTPKSPGASNFSTLPKISPSSLSNNYNNMNNRNVKNSNYCLPSYTAYKNYDYSEPGRNNEQPGLCGLSNLGNTCFMNSAIQCLSNTPPLTEYFLNDKYQEELNFDNPLGMRGEIAKSYAELIKQMWSGKFSYVTPRAFKTQVGRFAPQFSGYQQQDCQELLAFLLDGLHEDLNRIRKKPYIQLKDADGRPDKVVAEEAWENHLKRNDSIIVDIFHGLFKSTLVCPECAKISVTFDPFCYLTLPLPMKKERTLEVYLVRMDPLTKPMQYKVVVPKIGNILDLCTALSALSGIPADKMIVTDIYNHRFHRIFAMDENLSSIMERDDIYVFEININRTEDTEHVIIPVCLREKFRHSSYTHHTGSSLFGQPFLMAVPRNNTEDKLYNLLLLRMCRYVKISTETEETEGSLHCCKDQNINGNGPNGIHEEGSPSEMETDEPDDESSQDQELPSENENSQSEDSVGGDNDSENGLCTEDTCKGQLTGHKKRLFTFQFNNLGNTDINYIKDDTRHIRFDDRQLRLDERSFLALDWDPDLKKRYFDENAAEDFEKHESVEYKPPKKPFVKLKDCIELFTTKEKLGAEDPWYCPNCKEHQQATKKLDLWSLPPVLVVHLKRFSYSRYMRDKLDTLVDFPINDLDMSEFLINPNAGPCRYNLIAVSNHYGGMGGGHYTAFAKNKDDGKWYYFDDSSVSTASEDQIVSKAAYVLFYQRQDTFSGTGFFPLDRETKGASAATGIPLESDEDSNDNDNDIENENCMHTN
On to B2, for which the binding entry was “binds”.
